Changes are numbered by the printed parent chain. Results are given in words; binding and its absence hold for the method and conditions named. In cells and extracts the contact can be indirect. Some binding calls cover weakened binding; strength is not graded here. For part of these data: Where a sequence is shown, tags or fusion partners need not be part of it.
Assays:
Assay in all cases: co-IP; lysates of NHA/HRas^V12 cells expressing TRIM24 WT, deletion or point mutants; IP lysis buffer (20 mM Tris-HCl pH 7.5, 150 mM NaCl, 1 mM EDTA, 1% Triton X-100), 4 °C, four washes, Western blot; endogenous DNA-PK complex; some panels after NU7441 (4 µM, 24 h), Dabrafenib (40 µM, 24 h), U3 snoRNA knock-down or PHAX knock-down
[1] = target: T1, Flag-TRIM24 wild type (tripartite motif containing 24) (human) (UniProt O15164)
T1 sequence: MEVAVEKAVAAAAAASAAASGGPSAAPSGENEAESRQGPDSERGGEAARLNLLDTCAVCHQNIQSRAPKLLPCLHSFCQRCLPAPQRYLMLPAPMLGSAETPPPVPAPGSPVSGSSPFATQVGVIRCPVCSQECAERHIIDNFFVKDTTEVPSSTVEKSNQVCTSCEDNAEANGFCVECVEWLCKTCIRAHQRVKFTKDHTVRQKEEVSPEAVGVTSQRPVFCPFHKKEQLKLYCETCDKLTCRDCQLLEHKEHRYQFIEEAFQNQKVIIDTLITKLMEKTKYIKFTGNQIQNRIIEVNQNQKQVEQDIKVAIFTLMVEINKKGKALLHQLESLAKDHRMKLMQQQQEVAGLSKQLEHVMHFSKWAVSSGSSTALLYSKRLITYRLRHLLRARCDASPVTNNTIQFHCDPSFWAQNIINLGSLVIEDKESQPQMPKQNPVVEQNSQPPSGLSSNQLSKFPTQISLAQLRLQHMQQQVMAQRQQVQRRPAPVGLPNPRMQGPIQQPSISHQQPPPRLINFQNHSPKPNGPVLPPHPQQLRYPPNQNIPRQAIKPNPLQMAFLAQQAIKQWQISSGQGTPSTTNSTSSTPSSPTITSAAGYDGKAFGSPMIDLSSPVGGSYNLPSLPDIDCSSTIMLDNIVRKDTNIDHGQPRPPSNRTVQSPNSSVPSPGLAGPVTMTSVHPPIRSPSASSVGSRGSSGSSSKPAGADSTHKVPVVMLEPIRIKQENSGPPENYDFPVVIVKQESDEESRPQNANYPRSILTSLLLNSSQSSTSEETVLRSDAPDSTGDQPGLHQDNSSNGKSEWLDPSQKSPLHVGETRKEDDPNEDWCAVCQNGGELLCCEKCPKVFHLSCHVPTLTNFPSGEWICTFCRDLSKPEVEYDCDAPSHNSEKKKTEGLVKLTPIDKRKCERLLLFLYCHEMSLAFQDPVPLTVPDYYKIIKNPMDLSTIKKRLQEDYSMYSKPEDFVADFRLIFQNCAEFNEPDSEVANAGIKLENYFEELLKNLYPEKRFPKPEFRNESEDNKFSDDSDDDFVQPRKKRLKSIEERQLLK

Sequences of proteins named here, by UniProt entry; tags and fusion partners are left off.
UniProt P78527: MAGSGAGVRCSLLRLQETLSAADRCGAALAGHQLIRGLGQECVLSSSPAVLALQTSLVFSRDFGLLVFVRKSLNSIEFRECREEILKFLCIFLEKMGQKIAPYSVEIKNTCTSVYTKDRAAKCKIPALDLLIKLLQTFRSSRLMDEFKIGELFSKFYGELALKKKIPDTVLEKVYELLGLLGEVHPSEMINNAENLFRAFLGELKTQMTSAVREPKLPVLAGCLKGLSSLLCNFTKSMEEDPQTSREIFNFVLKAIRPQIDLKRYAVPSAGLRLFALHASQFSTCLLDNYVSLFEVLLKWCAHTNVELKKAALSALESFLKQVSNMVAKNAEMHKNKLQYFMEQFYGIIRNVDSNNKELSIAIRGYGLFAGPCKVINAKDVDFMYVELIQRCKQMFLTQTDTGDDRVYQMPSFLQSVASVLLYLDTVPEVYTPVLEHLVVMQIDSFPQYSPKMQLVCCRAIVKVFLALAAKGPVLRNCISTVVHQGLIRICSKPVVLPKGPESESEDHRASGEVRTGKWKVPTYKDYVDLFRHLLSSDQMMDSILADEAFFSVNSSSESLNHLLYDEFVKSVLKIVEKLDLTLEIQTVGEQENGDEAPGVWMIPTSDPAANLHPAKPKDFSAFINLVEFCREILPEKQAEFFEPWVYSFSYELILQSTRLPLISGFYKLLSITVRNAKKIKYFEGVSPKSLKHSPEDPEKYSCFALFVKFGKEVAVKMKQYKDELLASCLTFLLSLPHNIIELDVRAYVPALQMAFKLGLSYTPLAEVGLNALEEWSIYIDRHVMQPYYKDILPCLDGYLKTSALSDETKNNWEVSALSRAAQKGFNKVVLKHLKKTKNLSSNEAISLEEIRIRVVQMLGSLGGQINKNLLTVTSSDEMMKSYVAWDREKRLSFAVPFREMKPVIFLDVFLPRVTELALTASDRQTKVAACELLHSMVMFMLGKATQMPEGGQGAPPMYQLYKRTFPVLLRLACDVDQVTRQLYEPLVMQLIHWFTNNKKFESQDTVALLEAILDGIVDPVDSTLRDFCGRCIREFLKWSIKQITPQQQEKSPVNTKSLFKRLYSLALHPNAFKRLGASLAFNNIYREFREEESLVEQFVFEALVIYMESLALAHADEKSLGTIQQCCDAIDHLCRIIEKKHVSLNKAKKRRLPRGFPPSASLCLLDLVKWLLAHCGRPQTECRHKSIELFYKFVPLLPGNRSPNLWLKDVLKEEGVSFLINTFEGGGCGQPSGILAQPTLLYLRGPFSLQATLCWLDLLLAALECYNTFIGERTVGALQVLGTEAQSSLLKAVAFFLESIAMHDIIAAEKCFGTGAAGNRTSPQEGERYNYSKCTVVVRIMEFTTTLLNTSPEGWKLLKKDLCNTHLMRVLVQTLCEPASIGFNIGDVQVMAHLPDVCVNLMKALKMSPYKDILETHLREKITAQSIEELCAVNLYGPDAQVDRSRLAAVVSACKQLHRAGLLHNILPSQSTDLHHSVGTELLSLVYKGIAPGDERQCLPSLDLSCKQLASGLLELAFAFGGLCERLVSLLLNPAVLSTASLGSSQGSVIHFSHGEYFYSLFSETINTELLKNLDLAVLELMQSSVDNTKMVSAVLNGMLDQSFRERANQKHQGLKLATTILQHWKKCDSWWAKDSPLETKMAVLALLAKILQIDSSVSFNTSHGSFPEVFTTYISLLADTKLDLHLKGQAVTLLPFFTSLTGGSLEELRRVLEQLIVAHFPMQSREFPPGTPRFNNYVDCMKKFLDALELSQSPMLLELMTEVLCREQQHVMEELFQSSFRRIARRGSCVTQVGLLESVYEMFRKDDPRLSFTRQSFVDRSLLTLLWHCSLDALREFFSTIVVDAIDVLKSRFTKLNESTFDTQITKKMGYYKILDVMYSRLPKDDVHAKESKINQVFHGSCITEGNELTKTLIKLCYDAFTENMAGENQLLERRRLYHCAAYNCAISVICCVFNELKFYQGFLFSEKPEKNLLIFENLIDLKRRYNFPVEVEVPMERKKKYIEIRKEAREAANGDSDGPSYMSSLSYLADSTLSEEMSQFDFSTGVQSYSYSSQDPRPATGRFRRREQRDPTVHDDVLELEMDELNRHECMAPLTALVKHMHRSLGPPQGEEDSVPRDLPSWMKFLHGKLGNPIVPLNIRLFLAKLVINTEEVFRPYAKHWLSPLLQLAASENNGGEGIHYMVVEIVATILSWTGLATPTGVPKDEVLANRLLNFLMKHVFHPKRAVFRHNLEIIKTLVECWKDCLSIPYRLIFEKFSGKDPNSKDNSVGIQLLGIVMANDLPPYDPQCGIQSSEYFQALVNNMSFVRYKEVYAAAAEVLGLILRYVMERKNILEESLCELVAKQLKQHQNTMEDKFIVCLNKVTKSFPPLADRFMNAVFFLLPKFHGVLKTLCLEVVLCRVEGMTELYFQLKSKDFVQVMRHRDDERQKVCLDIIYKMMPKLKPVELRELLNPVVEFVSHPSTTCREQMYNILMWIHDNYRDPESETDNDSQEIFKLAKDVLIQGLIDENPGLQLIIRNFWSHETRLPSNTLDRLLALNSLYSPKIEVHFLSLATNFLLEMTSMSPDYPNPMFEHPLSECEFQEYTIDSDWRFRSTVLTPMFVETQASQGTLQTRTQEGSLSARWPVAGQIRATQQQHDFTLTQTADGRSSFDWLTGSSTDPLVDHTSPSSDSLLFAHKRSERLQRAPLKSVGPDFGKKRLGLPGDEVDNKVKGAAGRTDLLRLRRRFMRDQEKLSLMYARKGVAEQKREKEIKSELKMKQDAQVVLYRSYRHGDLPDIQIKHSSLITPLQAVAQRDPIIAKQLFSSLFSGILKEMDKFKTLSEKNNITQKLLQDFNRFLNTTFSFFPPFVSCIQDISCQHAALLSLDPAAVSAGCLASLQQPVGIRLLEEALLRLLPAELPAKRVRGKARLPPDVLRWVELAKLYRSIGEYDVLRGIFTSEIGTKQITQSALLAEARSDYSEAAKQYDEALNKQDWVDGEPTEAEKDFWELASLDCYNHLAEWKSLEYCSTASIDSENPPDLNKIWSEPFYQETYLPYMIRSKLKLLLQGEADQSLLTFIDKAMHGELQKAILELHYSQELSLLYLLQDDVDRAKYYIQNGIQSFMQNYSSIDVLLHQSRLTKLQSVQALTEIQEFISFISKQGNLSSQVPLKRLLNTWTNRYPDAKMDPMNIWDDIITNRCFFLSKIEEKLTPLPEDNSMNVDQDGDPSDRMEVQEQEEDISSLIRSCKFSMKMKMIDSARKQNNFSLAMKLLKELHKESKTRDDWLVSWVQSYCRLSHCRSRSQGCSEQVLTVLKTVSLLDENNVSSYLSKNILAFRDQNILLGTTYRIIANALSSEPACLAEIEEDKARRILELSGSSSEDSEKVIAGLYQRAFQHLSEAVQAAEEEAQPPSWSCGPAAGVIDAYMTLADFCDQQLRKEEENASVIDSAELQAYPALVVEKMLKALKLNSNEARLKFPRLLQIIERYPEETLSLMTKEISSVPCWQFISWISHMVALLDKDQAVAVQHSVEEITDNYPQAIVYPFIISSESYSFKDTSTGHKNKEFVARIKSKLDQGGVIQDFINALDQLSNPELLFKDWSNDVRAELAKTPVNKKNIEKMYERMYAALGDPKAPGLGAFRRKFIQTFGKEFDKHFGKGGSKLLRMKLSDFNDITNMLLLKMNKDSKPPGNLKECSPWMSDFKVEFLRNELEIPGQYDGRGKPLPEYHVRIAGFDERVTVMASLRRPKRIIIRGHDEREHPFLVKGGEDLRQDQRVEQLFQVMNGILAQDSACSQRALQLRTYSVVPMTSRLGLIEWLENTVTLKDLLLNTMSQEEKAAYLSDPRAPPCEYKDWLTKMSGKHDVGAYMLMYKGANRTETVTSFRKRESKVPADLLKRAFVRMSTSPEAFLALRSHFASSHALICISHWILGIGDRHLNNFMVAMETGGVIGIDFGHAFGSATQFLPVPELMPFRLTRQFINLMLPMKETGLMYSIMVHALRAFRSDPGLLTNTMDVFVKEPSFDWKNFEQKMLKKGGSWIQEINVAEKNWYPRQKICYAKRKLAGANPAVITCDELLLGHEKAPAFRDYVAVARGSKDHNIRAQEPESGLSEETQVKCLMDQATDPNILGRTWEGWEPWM

[2] = target: T2, TRIM24 S667A mutant (human) (UniProt O15164)
T2 sequence: T1 sequence with S667A

[3] = target: T3, TRIM24 deletion mutant D2 (lacks residues 393-1050) (human) (UniProt O15164)
T3 sequence: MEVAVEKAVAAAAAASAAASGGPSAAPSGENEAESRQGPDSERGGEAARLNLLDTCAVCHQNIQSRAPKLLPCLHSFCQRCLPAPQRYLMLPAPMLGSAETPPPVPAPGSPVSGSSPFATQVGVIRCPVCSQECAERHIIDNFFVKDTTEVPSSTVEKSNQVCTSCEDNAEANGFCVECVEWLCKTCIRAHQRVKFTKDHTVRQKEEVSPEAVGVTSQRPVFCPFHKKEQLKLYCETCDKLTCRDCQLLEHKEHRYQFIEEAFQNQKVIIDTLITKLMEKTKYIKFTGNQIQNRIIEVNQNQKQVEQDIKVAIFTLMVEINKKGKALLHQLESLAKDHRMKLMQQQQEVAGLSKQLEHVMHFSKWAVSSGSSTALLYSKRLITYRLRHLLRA

binding [1]: binds | binding [2]: binds | binding [3]: no binding
Substance: DNA-dependent protein kinase catalytic subunit (DNA-PKcs) (from UniProt P78527 1-4128) (enzyme)

— article PMC11304257
